Assay results from article PMC5660093, “Structure of SgK223 pseudokinase reveals novel mechanisms of homotypic and heterotypic association” (Nature Communications, 2017).
Substitutions are numbered along the chain they refer to. These are yes or no findings as the source states them, for the method shown.

Experiments:
SgK223-PsK-Cter (human) = SgK223-PsK-Cter (human) (UniProt Q86YV5); test: AUC; sedimentation velocity of SgK223-PsK-Cter at 4.6 μM; 20 mM Tris-HCl, 150 mM NaCl, pH 8.0, 20 °C; both purified
[1] = target: T1, SgK269-αN1-PsK-Cter F1609A (human) (UniProt Q9H792); test: SEC; SgK223 and SgK269 proteins mixed equimolar at 29.06 μM, 15 min on ice; Superdex 200 Increase 10/300 GL; 20 mM Tris pH 8.5, 200 mM NaCl, 5% glycerol, 1 mM TCEP; preformed homodimers mixed; both purified
T1 sequence: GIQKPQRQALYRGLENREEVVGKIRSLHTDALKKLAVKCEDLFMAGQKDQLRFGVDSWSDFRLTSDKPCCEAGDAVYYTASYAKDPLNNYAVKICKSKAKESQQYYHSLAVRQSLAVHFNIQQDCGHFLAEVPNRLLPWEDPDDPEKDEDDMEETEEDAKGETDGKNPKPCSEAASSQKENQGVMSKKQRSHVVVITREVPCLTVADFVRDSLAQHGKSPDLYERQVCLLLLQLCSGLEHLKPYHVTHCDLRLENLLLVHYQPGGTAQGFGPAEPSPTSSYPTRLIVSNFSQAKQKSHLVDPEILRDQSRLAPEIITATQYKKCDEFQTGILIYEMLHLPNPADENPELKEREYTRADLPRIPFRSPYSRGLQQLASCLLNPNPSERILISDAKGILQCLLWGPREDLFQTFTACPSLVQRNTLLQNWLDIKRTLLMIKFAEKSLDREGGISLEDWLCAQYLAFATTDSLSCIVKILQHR

SgK269-αN1-PsK-Cter (WT) = target: T2, SgK269-αN1-PsK-Cter (WT) (human, UniProt Q9H792 1267-1746); test: as above
T2 construct: SgK269 (PEAK1), human, residues 1267-1746: αN1 helix, pseudokinase domain and C-terminal helices; also called SgK269-WT (αN1-PsK-Cter); SgK269-WT; source: E. coli C41(DE3), purified (Ni-NTA, SEC)
T2 sequence (looked up): T1 sequence with A343F

B1: SgK223-PsK-Cter (domain or fragment, UniProt Q86YV5 975-1406)
chain: MGGQKKELHFNENNWSLFKLTCNKPCCDSGDAIYYCATCSEDPGSTYAVKICKAPEPKTVSYCSPSVPVHFNIQQDCGHFVASVPSSMLSSPDAPKDPVPALPTHPPAQEQDCVVVITREVPHQTASDFVRDSAASHQAEPEAYERRVCFLLLQLCNGLEHLKEHGIIHRDLCLENLLLVHCTLQAGPGPAPAPAPAPAPAAAAPPCSSAAPPAGGTLSPAAGPASPEGPREKQLPRLIISNFLKAKQKPGGTPNLQQKKSQARLAPEIVSASQYRKFDEFQTGILIYELLHQPNPFEVRAQLRERDYRQEDLPPLPALSLYSPGLQQLAHLLLEADPIKRIRIGEAKRVLQCLLWGPRRELVQQPGTSEEALCGTLHNWIDMKRALMMMKFAEKAVDRRRGVELEDWLCCQYLASAEPGALLQSLKLLQLL
SgK223-PsK-Cter (human)
  binding: no binding (tested: 4.6 μM)

B2: SgK223-αN1-PsK-Cter (WT) (domain or fragment, human, UniProt Q86YV5 932-1406, looked up)
chain: GSTQLQLHGLLSNISSKEGTYAKLGGLYTQSLARLVAKCEDLFMGGQKKELHFNENNWSLFKLTCNKPCCDSGDAIYYCATCSEDPGSTYAVKICKAPEPKTVSYCSPSVPVHFNIQQDCGHFVASVPSSMLSSPDAPKDPVPALPTHPPAQEQDCVVVITREVPHQTASDFVRDSAASHQAEPEAYERRVCFLLLQLCNGLEHLKEHGIIHRDLCLENLLLVHCTLQAGPGPAPAPAPAPAPAAAAPPCSSAAPPAGGTLSPAAGPASPEGPREKQLPRLIISNFLKAKQKPGGTPNLQQKKSQARLAPEIVSASQYRKFDEFQTGILIYELLHQPNPFEVRAQLRERDYRQEDLPPLPALSLYSPGLQQLAHLLLEADPIKRIRIGEAKRVLQCLLWGPRRELVQQPGTSEEALCGTLHNWIDMKRALMMMKFAEKAVDRRRGVELEDWLCCQYLASAEPGALLQSLKLLQLL
notes: SgK223 (Pragmin), human, residues 932-1406: αN1 helix, pseudokinase domain and C-terminal helices; Modified pCOLD IV vector with an N-terminal His TEV cleavage tag; Monomer MW printed as 54 kDa; A seleno-methionine form was also crystallised; also called WT-SgK223-αN1-PsK-Cter; SgK223-WT (αN1-PsK-Cter); source: E. coli C41(DE3), purified (Ni-NTA, SEC)
[1]
  binding: no binding (tested: 29.06 μM)

B3: SgK223 αN1-PsK-Cter I1243A (domain or fragment, human, UniProt Q86YV5 932-1406, looked up)
chain: B2 chain with I312A
notes: SgK223 (Pragmin), human, residues 932-1406; source: E. coli C41(DE3), purified (Ni-NTA, SEC)
SgK269-αN1-PsK-Cter (WT)
  binding: no binding (tested: 29.06 μM)

B4: SgK223-αN1-PsK-Cter F1271A (domain or fragment, human, UniProt Q86YV5 932-1406, looked up)
chain: B2 chain with F340A
notes: SgK223 (Pragmin), human, residues 932-1406; also called SgK223-αN1-PsK-Cter Phe1271Ala; His-SgK223-αN1-PsK-Cter; source: E. coli C41(DE3), purified (Ni-NTA, SEC); not shown: His tag, N-terminal, kept
SgK269-αN1-PsK-Cter (WT)
  binding: no binding (tested: 29.06 μM)

B5: SgK223-αN1-PsK-Cter Y1282A (domain or fragment, human, UniProt Q86YV5 932-1406, looked up)
chain: B2 chain with Y351A
notes: as for B3
SgK269-αN1-PsK-Cter (WT)
  binding: no binding (tested: 29.06 μM)
